# No constants are given. Whether binding was seen depends on the method and setting. For some assays here: In cells and extracts the contact can be indirect. Some binding calls cover weakened binding; strength is not graded here.
# The chains behind the UniProt entries cited, without tags or fusion partners.
# UniProt Q00613: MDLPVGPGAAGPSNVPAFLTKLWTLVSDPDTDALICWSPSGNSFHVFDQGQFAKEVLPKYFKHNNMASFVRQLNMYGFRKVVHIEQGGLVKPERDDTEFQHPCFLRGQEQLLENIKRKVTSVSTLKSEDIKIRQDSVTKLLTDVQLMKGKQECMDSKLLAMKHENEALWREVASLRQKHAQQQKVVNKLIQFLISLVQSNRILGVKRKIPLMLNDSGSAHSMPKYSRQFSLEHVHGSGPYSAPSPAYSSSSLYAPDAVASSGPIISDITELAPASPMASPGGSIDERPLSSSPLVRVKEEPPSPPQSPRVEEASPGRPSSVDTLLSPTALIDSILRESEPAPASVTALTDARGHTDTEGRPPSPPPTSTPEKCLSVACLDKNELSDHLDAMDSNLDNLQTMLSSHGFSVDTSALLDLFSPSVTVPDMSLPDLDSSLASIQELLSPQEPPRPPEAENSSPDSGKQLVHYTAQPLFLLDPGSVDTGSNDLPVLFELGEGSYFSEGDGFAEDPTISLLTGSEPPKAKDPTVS
# T1: dihydrolipoamide S-acetyltransferase (DLAT) (human (endogenous in MIA PaCa-2)) (UniProt P10515)
# T1 sequence: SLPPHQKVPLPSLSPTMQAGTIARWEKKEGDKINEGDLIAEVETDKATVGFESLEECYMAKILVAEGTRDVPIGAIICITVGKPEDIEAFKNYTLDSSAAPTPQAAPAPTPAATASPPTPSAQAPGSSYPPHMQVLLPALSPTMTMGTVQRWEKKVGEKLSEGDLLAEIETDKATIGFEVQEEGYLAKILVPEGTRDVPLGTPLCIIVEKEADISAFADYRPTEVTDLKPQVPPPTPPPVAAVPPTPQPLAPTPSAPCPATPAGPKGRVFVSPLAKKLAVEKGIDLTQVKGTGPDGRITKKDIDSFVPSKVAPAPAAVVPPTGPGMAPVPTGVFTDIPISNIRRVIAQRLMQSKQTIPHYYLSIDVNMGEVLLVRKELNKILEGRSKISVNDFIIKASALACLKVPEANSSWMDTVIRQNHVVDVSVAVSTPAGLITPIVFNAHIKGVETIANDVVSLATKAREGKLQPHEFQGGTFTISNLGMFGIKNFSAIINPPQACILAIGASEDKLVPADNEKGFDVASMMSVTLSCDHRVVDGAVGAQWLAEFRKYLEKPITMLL
# Tests used:
# [1] = target: T1, dihydrolipoamide S-acetyltransferase (DLAT) (human (endogenous in MIA PaCa-2)); assay: co-IP; 1 mg whole cell lysate (1% Triton X-100, 100 mM NaCl, 30 mM Tris-HCl pH 7.6) incubated with anti-DLAT or HSF1 antibodies at 4 °C overnight, Protein G MagBeads, immunoblotting; normal rabbit IgG as negative control; cells without or with copper treatment
# [2] = target: T1, dihydrolipoamide S-acetyltransferase (DLAT) (human (endogenous in MIA PaCa-2)); assay: immunoprecipitation and nonreducing SDS-PAGE; HSF1-overexpressing HSF1-deficient MIA PaCa-2 cells treated with 1 mM CuCl2 for 12 h; beads boiled in loading buffer without β-mercaptoethanol, nonreducing SDS-PAGE, Western blotting
Molecule,binding [1],binding [2]
heat shock factor 1 (HSF1) (from UniProt Q00613 1-529),binds,–
"dihydrolipoamide S-acetyltransferase (DLAT) (enzyme, UniProt P10515 87-647) SLPPHQKVPLPSLSPTMQAGTIARWEKKEGDKINEGDLIAEVETDKATVGFESLEECYMAKILVAEGTRDVPIGAIICITVGKPEDIEAFKNYTLDSSAAPTPQAAPAPTPAATASPPTPSAQAPGSSYPPHMQVLLPALSPTMTMGTVQRWEKKVGEKLSEGDLLAEIETDKATIGFEVQEEGYLAKILVPEGTRDVPLGTPLCIIVEKEADISAFADYRPTEVTDLKPQVPPPTPPPVAAVPPTPQPLAPTPSAPCPATPAGPKGRVFVSPLAKKLAVEKGIDLTQVKGTGPDGRITKKDIDSFVPSKVAPAPAAVVPPTGPGMAPVPTGVFTDIPISNIRRVIAQRLMQSKQTIPHYYLSIDVNMGEVLLVRKELNKILEGRSKISVNDFIIKASALACLKVPEANSSWMDTVIRQNHVVDVSVAVSTPAGLITPIVFNAHIKGVETIANDVVSLATKAREGKLQPHEFQGGTFTISNLGMFGIKNFSAIINPPQACILAIGASEDKLVPADNEKGFDVASMMSVTLSCDHRVVDGAVGAQWLAEFRKYLEKPITMLL",–,binds

# Reference: paper PMC11546224
